No constants are given. Whether binding was seen depends on the method and setting. Some binding calls cover weakened binding; strength is not graded here.
Target: FGF2 (UniProt P09038)
Test: ELISA; 5 ug/ml heparin coated on a GAG-binding plate as substrate to hold FGF2 (200 ng/ml in PBS, 2 h, 37 °C), blocked with 0.5 % fish gelatin; FGFR-Fc (500 ng/ml) pre-complexed in PBS with increasing amounts of IMB-R1 antiserum (on ice, 2 h) or without it, applied for 1.5 h; bound FGFR-Fc detected with HRP goat anti-human IgG-Fc; both purified

By UniProt entry, the sequences of proteins in these tests, tags left out. Residues count along the entry.
UniProt P09038, residues 143-288: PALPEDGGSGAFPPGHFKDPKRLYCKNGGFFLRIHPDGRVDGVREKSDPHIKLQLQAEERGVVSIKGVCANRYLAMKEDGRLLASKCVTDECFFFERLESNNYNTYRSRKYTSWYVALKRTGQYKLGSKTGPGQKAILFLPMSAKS
UniProt P11362, residues 22-376: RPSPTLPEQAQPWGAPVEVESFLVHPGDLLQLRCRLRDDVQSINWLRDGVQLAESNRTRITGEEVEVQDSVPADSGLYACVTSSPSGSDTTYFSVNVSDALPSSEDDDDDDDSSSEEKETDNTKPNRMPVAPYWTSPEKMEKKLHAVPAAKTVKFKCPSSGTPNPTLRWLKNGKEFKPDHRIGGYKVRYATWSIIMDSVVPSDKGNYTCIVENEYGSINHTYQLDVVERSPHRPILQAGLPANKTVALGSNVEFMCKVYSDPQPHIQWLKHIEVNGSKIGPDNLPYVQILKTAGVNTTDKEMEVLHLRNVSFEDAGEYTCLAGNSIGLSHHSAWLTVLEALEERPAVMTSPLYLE

binding: binds
Substance: Recombinant human FGFR1c-Fc (FGFR1 IIIc isoform) (from UniProt P11362 22-376) (Fc fusion)
